# From publication PMC12034760, “FBL promotes hepatocellular carcinoma tumorigenesis and progression by recruiting YY1 to enhance CAD gene expression” (Cell Death & Disease, 2025)
# Sequences of proteins named here, by UniProt entry; tags and fusion partners are left off.
# UniProt P25490: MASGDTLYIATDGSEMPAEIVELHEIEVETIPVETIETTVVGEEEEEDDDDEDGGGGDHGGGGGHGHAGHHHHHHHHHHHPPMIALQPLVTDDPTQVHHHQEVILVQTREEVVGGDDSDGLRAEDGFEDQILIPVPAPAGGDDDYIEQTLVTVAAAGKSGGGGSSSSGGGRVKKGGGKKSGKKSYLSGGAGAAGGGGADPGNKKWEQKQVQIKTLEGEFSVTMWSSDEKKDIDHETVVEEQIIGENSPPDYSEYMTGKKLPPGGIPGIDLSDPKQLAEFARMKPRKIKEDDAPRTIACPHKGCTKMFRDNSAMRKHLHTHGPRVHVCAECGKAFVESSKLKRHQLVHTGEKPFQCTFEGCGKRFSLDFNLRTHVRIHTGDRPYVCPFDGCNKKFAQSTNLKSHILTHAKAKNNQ
# Target: T1, fibrillarin (FBL), bait of the pull-down assays (UniProt P22087)
# T1 sequence: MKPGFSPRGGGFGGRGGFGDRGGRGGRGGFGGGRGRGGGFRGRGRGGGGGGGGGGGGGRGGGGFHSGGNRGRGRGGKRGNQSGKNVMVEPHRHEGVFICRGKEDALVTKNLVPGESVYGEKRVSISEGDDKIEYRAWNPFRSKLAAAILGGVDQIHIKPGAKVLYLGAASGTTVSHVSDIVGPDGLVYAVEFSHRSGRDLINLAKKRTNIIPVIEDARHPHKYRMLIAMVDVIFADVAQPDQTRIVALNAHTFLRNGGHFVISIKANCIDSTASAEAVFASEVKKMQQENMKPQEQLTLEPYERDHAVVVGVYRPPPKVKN
# Experiment: affinity purification with mass spectrometry; FBL pull-down assay followed by mass spectrometry; 13 potential interacting proteins; bait construct and sample not told
substance,measurement,value
"YY1 (transcriptional repressor protein YY1), found by mass spectrometry in the FBL pull-down (from UniProt P25490 1-414)",binding,binds

# Results are given in words; binding and its absence hold for the method and conditions named. In cells and extracts the contact can be indirect. Here binding means that the protein was enriched with, or labelled near, the bait; the list need not be complete.
